# According to the supplement of paper PMC12889115:
# The other results are listed elsewhere or left out. Values are raw readings; no control value is given beside them.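 First-pass screen: polymyxin B was added at a level that permeabilizes the Salmonella outer membrane while sparing the inner membrane. DMSO wells, with and without polymyxin B, defined maximum growth. Because plates differed from one another, each plate's data were ranked separately and the compounds with the lowest OD600 were carried forward as hits.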
# Tested on: Salmonella enterica serovar Typhimurium SL1344
# Assay: bacterial growth OD600 after 18 h with compound and polymyxin B; higher = more bacterial growth (less inhibition)
# Conditions: 50 µM, Mueller-Hinton broth
smiles,measurement,setting,value
Cn1cc(CN(CCN2CCCCC2)CC2CCCN(C3CCCC3)C2)cn1 (centres undefined),bacterial growth OD600,polymyxin B 0.75 µg/mL,0.866
COCC1CCCN(C(=O)c2cc(Cn3ccc4ccccc43)[nH]n2)C1 (centres undefined),bacterial growth OD600,polymyxin B 0.75 µg/mL,0.975
Cc1nn(C)cc1CNC(C)c1cnn(-c2cccc3ccccc23)c1C (centres undefined),bacterial growth OD600,polymyxin B 0.75 µg/mL,0.833
CC(C)S(=O)(=O)N1C[C@H]2OC(=O)N(CCc3ccc(F)cc3)[C@H]2C1,bacterial growth OD600,polymyxin B 0.75 µg/mL,0.875
CCOC(=O)C1CCCN(C(=O)c2oc3ccc(C)cc3c2C)C1 (centres undefined),bacterial growth OD600,polymyxin B 0.75 µg/mL,0.005
O=C(NCCc1cn2cccnc2n1)c1coc(COc2cccc(F)c2F)n1,bacterial growth OD600,polymyxin B 0.75 µg/mL,0.812
COCc1ccc(CN(C)CC2CCCN(CCc3ccccc3OC)C2)o1 (centres undefined),bacterial growth OD600,polymyxin B 1 µg/mL,0.956
COc1ccc(-c2cc(C(=O)NC3CCCN(Cc4ccccn4)C3)[nH]n2)cc1 (centres undefined),bacterial growth OD600,polymyxin B 0.75 µg/mL,0.728
CCC1(C2CCN(C(=O)Cc3ccc(OC)cc3)CC2)NC(=O)N(Cc2ccc3c(c2)OCO3)C1=O (centres undefined),bacterial growth OD600,polymyxin B 0.75 µg/mL,0.809

# A different layout for part of the listing above:
smiles | measurement | setting | value
Cn1cc(CN(CCN2CCCCC2)CC2CCCN(C3CCCC3)C2)cn1 (centres undefined) | bacterial growth OD600 | polymyxin B 0.75 µg/mL | 0.866
O=C(NCCc1cn2cccnc2n1)c1coc(COc2cccc(F)c2F)n1 | bacterial growth OD600 | polymyxin B 0.75 µg/mL | 0.812
